Assay [1] concerns the target C-terminal region of HIC5. Put plainly: co-IP.
For assay [2], the target named is LIM4 domain located within the C terminus of PXN (human). Put plainly: co-IP.

Results are given in words; binding and its absence hold for the method and conditions named. Binding seen in cells or lysates may run through a third protein. A result given as binding can be weak or reduced; the word gives no strength.

B1: ULK2, expressed in HEK293T cells (enzyme, UniProt Q8IYT8 1-1036)
chain: MEVVGDFEYSKRDLVGHGAFAVVFRGRHRQKTDWEVAIKSINKKNLSKSQILLGKEIKILKELQHENIVALYDVQELPNSVFLVMEYCNGGDLADYLQAKGTLSEDTIRVFLHQIAAAMRILHSKGIIHRDLKPQNILLSYANRRKSSVSGIRIKIADFGFARYLHSNMMAATLCGSPMYMAPEVIMSQHYDAKADLWSIGTVIYQCLVGKPPFQANSPQDLRMFYEKNRSLMPSIPRETSPYLANLLLGLLQRNQKDRMDFEAFFSHPFLEQGPVKKSCPVPVPMYSGSVSGSSCGSSPSCRFASPPSLPDMQHIQEENLSSPPLGPPNYLQVSKDSASTSSKNSSCDTDDFVLVPHNISSDHSCDMPVGTAGRRASNEFLVCGGQCQPTVSPHSETAPIPVPTQIRNYQRIEQNLTSTASSGTNVHGSPRSAVVRRSNTSPMGFLRPGSCSPVPADTAQTVGRRLSTGSSRPYSPSPLVGTIPEQFSQCCCGHPQGHDSRSRNSSGSPVPQAQSPQSLLSGARLQSAPTLTDIYQNKQKLRKQHSDPVCPSHTGAGYSYSPQPSRPGSLGTSPTKHLGSSPRSSDWFFKTPLPTIIGSPTKTTAPFKIPKTQASSNLLALVTRHGPAEEQSKDGNEPRECAHCLLVQGSERQRAEQQSKAVFGRSVSTGKLSDQQGKTPICRHQGSTDSLNTERPMDIAPAGACGGVLAPPAGTAASSKAVLFTVGSPPHSAAAPTCTHMFLRTRTTSVGPSNSGGSLCAMSGRVCVGSPPGPGFGSSPPGAEAAPSLRYVPYGASPPSLEGLITFEAPELPEETLMEREHTDTLRHLNVMLMFTECVLDLTAMRGGNPELCTSAVSLYQIQESVVVDQISQLSKDWGRVEQLVLYMKAAQLLAASLHLAKAQIKSGKLSPSTAVKQVVKNLNERYKFCITMCKKLTEKLNRFFSDKQRFIDEINSVTAEKLIYNCAVEMVQSAALDEMFQQTEDIVYRYHKAALLLEGLSRILQDPADIENVHKYKCSIERRLSALCHSTATV
Regarding B1, the binding result in assay [1] and in assay [2] was “binds” throughout.

Source of the values: publication doi:10.1101/2023.02.03.526950.
